Assay results: US20240043808A1, “Screenable Liver Disease Models and Methods” (INSPHERO AG, priority 2016, published 2024)
For at least one compound, name, drawing or mass did not settle the structure.

System: liver microtissues
Assay: Lipid loading of liver microtissues, nile-red staining of lipid accumulation (steatosis)
Assay type: cell-based
Settings: increasing concentrations of free fatty acid
Protocol: FIG. 3A(1): Induction of liver-disease phenotype “steatosis” as determined by lipid accumulation. […] Images are depicted as maximal intensity projections.
FIG. 3A (2): Lipid accumulation in dependency of increasing concentrations of PA, OA or a combination thereof in a molar ratio of 2:1. The total amount of FFA was identical among the groups at a given concentration.
• Dissolve FFA-free BSA at RT for 1h in H2O for desired stock solution concentration • Dissolve desired amount of OA-Na in 1 mL 0.1 M NaOH-->at 70° C. • Dissolve desired amount of PA-Na 1 mL 0.1 M NaOH-->at 70° • Keep the FFAs on 70° C., while the BSA is placed on 37° C. • Mix FFA with BSA with a magnetic stirrer (for 30 min) • Dilute BSA with 0.1 M NaOH->vehicle control • Cool down to RT, sterile filter, aliquot and freeze. • For a final fatty acid (FA) solution dilute master stock in medium. • Replace medium of liver microtissues with FA-containing medium and incubate 2-7 days.

CCCCCCCC/C=C\CCCCCCCC(=O)O [OA, Oleate]
lipid accumulation in microtissues: saturation regarding lipid droplet density | lipid accumulation in microtissues (listed as Oleate): induced lipid accumulation
